# Assay results taken from publication PMC7819943, “Rice protein-binding microarrays: a tool to detect cis-acting elements near promoter regions in rice”.
# The list shows a part of the results.
# Target: T1, OsSMF1 (Oryza sativa, UniProt Q6ZLB0 1-436)
# T1 sequence: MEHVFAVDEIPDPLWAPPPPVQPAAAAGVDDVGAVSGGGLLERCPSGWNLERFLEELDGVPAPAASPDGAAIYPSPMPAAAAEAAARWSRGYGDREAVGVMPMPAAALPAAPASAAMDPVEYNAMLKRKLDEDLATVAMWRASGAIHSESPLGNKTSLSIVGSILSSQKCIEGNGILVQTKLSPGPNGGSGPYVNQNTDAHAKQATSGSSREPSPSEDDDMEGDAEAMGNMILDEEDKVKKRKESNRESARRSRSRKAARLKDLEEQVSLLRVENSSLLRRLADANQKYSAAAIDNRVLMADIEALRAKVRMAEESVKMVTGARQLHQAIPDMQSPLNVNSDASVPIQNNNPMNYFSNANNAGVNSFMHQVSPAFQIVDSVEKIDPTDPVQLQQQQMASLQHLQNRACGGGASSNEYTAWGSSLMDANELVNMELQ
# Experiment: protein-binding microarray (RPBM); PBS, 2% BSA, 51.3 ng/ul salmon testes DNA, 50 uM zinc acetate, 200 nM TF, 25 C, 1 h; high values mean tight binding
# Conditions: protein: recombinant; tags: N-terminal polyhistidine and DsRed monomer fusion (pET32a); chain copies: 2; label: CyDye5-dUTP incorporated in the synthesized complementary strand; 3' TTTTT single-stranded linker to array surface; dsDNA, one strand shown
# Summary of the method: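 A custom Agilent array was converted to double-stranded form by primer extension with Cy5-dUTP and blocked with 2% BSA. Protein at 200 nM in PBS with 2% BSA, salmon testes DNA and 50 µM zinc acetate was applied for 1 h at 25 °C, followed by washing. The proteins were polyhistidine–DsRed N-terminal fusions of transcription factors, expressed in E. coli BL21-CodonPlus and Ni–NTA-purified. The binding signal is per-feature fluorescence intensity (arbitrary units) from an Axon 4000B scanner.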
row,Sequence,binding signal
1,ACGGGCTCACGGGCAGTGACGGCAGCATCAACCGTTACCCCGGAGTCACCTAGTGCAG,4110 fluorescence intensity (a.u.)
2,CTCTCTCTCTCTCTCTCTCTCTCTCTCTGTTTTACTACAACGGAGTCACCTAGTGCAG,3500 fluorescence intensity (a.u.)
3,CCGCCTGCCACCTCCTCGCCGCCCGTCGCGTCGACGCCTGCGGAGTCACCTAGTGCAG,4490 fluorescence intensity (a.u.)
4,TGCTGTCGATGTGCTTATCTTTCGATTTATTCCTCTCATCCGGAGTCACCTAGTGCAG,3200 fluorescence intensity (a.u.)
5,ATCCCGTTGCCGTCCTCAACACCTTCGCCGGTGTCGAAACCGGAGTCACCTAGTGCAG,4660 fluorescence intensity (a.u.)
6,TTACACCCCACTTACACATCACTTACATATGTAATTAATACGGAGTCACCTAGTGCAG,3420 fluorescence intensity (a.u.)
7,GGCTAGCGTGGGCTCCACGTGCGCTGGTTATGCATGTAGCCGGAGTCACCTAGTGCAG,9540 fluorescence intensity (a.u.)
8,TTGTTCTACTCCTCCTTGCTGGTGGTGATGTAGGACGGATCGGAGTCACCTAGTGCAG,3230 fluorescence intensity (a.u.)
9,TCTTACTCCATTTCGTAGTAGTTTGCACATCACCAAACATCGGAGTCACCTAGTGCAG,4060 fluorescence intensity (a.u.)
10,GATGGTAGGTATGCATATGACGCATATCCTACCTGACGGACGGAGTCACCTAGTGCAG,3450 fluorescence intensity (a.u.)
11,ACTCGAAGCGTCGGTCTGCCCTGCAACCAGCTGACGTCAGCGGAGTCACCTAGTGCAG,20800 fluorescence intensity (a.u.)
12,ATTATCAAATTTCTCGTGCATATGTCACTCGTATTTGTTGCGGAGTCACCTAGTGCAG,4990 fluorescence intensity (a.u.)
13,CCATGCTGTCAAATCAGCAACTAACGAGGCATAATCTCGACGGAGTCACCTAGTGCAG,38500 fluorescence intensity (a.u.)
14,AAATAAGAGTCACAAGAGAAGGCAGACTGAGCTCACAGAACGGAGTCACCTAGTGCAG,30900 fluorescence intensity (a.u.)
15,GTTGAATTACCTTAGCGTATATGGAAGCAACCTGTGTACGCGGAGTCACCTAGTGCAG,34700 fluorescence intensity (a.u.)
16,CGTCCACCATCGCCCCGCTCGTCTCAGCCCCGTCGTCGCGCGGAGTCACCTAGTGCAG,3170 fluorescence intensity (a.u.)
17,GCAGAGGAACCTTGGTAGTAGTATTTGGTTTCTCAGAAGTCGGAGTCACCTAGTGCAG,52600 fluorescence intensity (a.u.)
18,GGAGAGCTCCGGGAAGACGCGCGCTGACGCGGCCTCCCTGCGGAGTCACCTAGTGCAG,8860 fluorescence intensity (a.u.)
19,TCCATAGGTATCTCTCCACGTCCCACTAGGTGTACAAACCCGGAGTCACCTAGTGCAG,4110 fluorescence intensity (a.u.)
20,CCCCTGTTGGCCGTCGGACACGCACGCCGCACTCGCCGCGCGGAGTCACCTAGTGCAG,6190 fluorescence intensity (a.u.)
21,AAACGAAATTATTGTATGTATTACTTCTTAATAGGTAATACGGAGTCACCTAGTGCAG,3560 fluorescence intensity (a.u.)
22,TTTGAGGTTTGGCCACGACGACGCCTGCCTATAAATACCACGGAGTCACCTAGTGCAG,4060 fluorescence intensity (a.u.)
23,TAAGCATAATTGCTCCATGATTTGGCAATGTGATGCTACACGGAGTCACCTAGTGCAG,4240 fluorescence intensity (a.u.)
24,GCTGAGATATAGTTGCCACGTAAGCGCCACGTCAATGCTACGGAGTCACCTAGTGCAG,33000 fluorescence intensity (a.u.)
25,CGCCGAGCTGCCACGCTCGCGTCGCGTCCAGATGCGCGCGCGGAGTCACCTAGTGCAG,3680 fluorescence intensity (a.u.)
26,GGGGTGACGCCAGCGGGCACGTGCCCCACACGTGCGGTCCCGGAGTCACCTAGTGCAG,4160 fluorescence intensity (a.u.)
27,CCTGGGCTGCCTGTTCATCATCACGCGTTTGATGTTCACTCGGAGTCACCTAGTGCAG,3710 fluorescence intensity (a.u.)

row,Sequence,binding signal
1,CGCTGACACTGCCGCTGGATCTCGTTTGTGCGTCTGCAATCGGAGTCACCTAGTGCAG,3850 fluorescence intensity (a.u.)
2,GGCGCGTGGGAGGACGCCAAGCCCAAGGGGCAGGGCACGTCGGAGTCACCTAGTGCAG,3140 fluorescence intensity (a.u.)
3,ATACCTGGAAGTATAACCACACACGTTTATGACGTCATCACGGAGTCACCTAGTGCAG,25700 fluorescence intensity (a.u.)
4,CAACCCTGACGTCACGTAAGCTTTTGCCAATTCCGCCAACCGGAGTCACCTAGTGCAG,9890 fluorescence intensity (a.u.)
5,GGGCGCCCTCCGGTTTGAATTGCGAAGGAATTTGCGAGCTCGGAGTCACCTAGTGCAG,20100 fluorescence intensity (a.u.)
6,GTCGGACACGGGGCAGTACCCCGCGAGCGTCACGGCGGCGCGGAGTCACCTAGTGCAG,3420 fluorescence intensity (a.u.)
7,CCCACCCACTACCTCTCTCTCCTCAATCTCCTCTCTACCCCGGAGTCACCTAGTGCAG,19500 fluorescence intensity (a.u.)
8,GAAGCAATTGGGCGGTGTCGATCGTTGACAATGCTCTACTCGGAGTCACCTAGTGCAG,3550 fluorescence intensity (a.u.)
9,CCGAAAATATCACGCGGCTTATGGCCATCGCCCACGTGGCCGGAGTCACCTAGTGCAG,8780 fluorescence intensity (a.u.)
10,ACCCATAGTGTCCATAAGTAGTGTCTATGGTGCCATGTCACGGAGTCACCTAGTGCAG,6680 fluorescence intensity (a.u.)
11,ATTTATCGTACACCAAGAATCATACATGCAGACACGCAAACGGAGTCACCTAGTGCAG,3220 fluorescence intensity (a.u.)
12,AGTAGGTTGGTGCGTCACATTACTCGGCAGCGGACACATTCGGAGTCACCTAGTGCAG,4690 fluorescence intensity (a.u.)
13,CCTCAGTCGCTCCAAGGCATCCTCCTCGCGTCGTCACTCGCGGAGTCACCTAGTGCAG,3770 fluorescence intensity (a.u.)
14,GAACGACTTTCTATTCCAATAGATAACACTACCCCTAGTACGGAGTCACCTAGTGCAG,3460 fluorescence intensity (a.u.)
15,CAAGTAGTTTGTGAATTGTGACCATCAAACAGATTCGTGTCGGAGTCACCTAGTGCAG,3640 fluorescence intensity (a.u.)
16,TCAGCTCCACTACCAGACAAAACACATCACCCAAAACCCCCGGAGTCACCTAGTGCAG,4330 fluorescence intensity (a.u.)
17,TTGACATGTGGGGCCTATTGGACACGTCAGTCAAAATCGGCGGAGTCACCTAGTGCAG,7020 fluorescence intensity (a.u.)
18,TTACGCCTTATTAGGGTGTAGCCCACGGCCCACCTTTCCGCGGAGTCACCTAGTGCAG,22300 fluorescence intensity (a.u.)
19,AGTGAGCTCGCGTGATGAGCTTCGGTGGCATGTTCGATGGCGGAGTCACCTAGTGCAG,3210 fluorescence intensity (a.u.)
20,ATGGAAGTGCTGAATCAGCTCTTGTAAATCCTATTTCATTCGGAGTCACCTAGTGCAG,8860 fluorescence intensity (a.u.)
21,TAGGCGCTAAGTCCGACTTCCTCTCCCCGAGATAGCCAGCCGGAGTCACCTAGTGCAG,32300 fluorescence intensity (a.u.)
22,ACCGTCATCCTCGCCGTCCCCTTCTTCTGCGCCGCCGCCGCGGAGTCACCTAGTGCAG,10700 fluorescence intensity (a.u.)
23,ATGGACCACGTGTACGCTTTGTATGGAATAAGGTCACTTTCGGAGTCACCTAGTGCAG,10000 fluorescence intensity (a.u.)
24,CACGAATCACGGAGCGAAACGTGGCCGCGCGGTTCAGACCCGGAGTCACCTAGTGCAG,21400 fluorescence intensity (a.u.)
25,GACGTGTGGGTCCCACTTCTGGTGGGGACACGTGTCAGCCCGGAGTCACCTAGTGCAG,21800 fluorescence intensity (a.u.)
26,GGAGGAGGAGCTAGGGTTTCGGATGGGAGGAGGAGGAGGGCGGAGTCACCTAGTGCAG,3140 fluorescence intensity (a.u.)
27,CCCTAGACGACCACCACCATCTGACGGCGGTGGCTGCGGCCGGAGTCACCTAGTGCAG,3540 fluorescence intensity (a.u.)

# In a second layout: results already given.
row	Sequence	binding signal
2	GGCGCGTGGGAGGACGCCAAGCCCAAGGGGCAGGGCACGTCGGAGTCACCTAGTGCAG	3140 fluorescence intensity (a.u.)
3	ATACCTGGAAGTATAACCACACACGTTTATGACGTCATCACGGAGTCACCTAGTGCAG	25700 fluorescence intensity (a.u.)
4	CAACCCTGACGTCACGTAAGCTTTTGCCAATTCCGCCAACCGGAGTCACCTAGTGCAG	9890 fluorescence intensity (a.u.)
5	GGGCGCCCTCCGGTTTGAATTGCGAAGGAATTTGCGAGCTCGGAGTCACCTAGTGCAG	20100 fluorescence intensity (a.u.)
6	GTCGGACACGGGGCAGTACCCCGCGAGCGTCACGGCGGCGCGGAGTCACCTAGTGCAG	3420 fluorescence intensity (a.u.)
7	CCCACCCACTACCTCTCTCTCCTCAATCTCCTCTCTACCCCGGAGTCACCTAGTGCAG	19500 fluorescence intensity (a.u.)
8	GAAGCAATTGGGCGGTGTCGATCGTTGACAATGCTCTACTCGGAGTCACCTAGTGCAG	3550 fluorescence intensity (a.u.)
9	CCGAAAATATCACGCGGCTTATGGCCATCGCCCACGTGGCCGGAGTCACCTAGTGCAG	8780 fluorescence intensity (a.u.)
10	ACCCATAGTGTCCATAAGTAGTGTCTATGGTGCCATGTCACGGAGTCACCTAGTGCAG	6680 fluorescence intensity (a.u.)
11	ATTTATCGTACACCAAGAATCATACATGCAGACACGCAAACGGAGTCACCTAGTGCAG	3220 fluorescence intensity (a.u.)
